Experimental data from article PMC11786360.
Results are given in words; binding and its absence hold for the method and conditions named. In cells and extracts the contact can be indirect. A yes stands for co-enrichment or nearness to the bait. Other partners may have been found.

By UniProt entry, the sequences of proteins in these tests, tags left out.
UniProt P45974: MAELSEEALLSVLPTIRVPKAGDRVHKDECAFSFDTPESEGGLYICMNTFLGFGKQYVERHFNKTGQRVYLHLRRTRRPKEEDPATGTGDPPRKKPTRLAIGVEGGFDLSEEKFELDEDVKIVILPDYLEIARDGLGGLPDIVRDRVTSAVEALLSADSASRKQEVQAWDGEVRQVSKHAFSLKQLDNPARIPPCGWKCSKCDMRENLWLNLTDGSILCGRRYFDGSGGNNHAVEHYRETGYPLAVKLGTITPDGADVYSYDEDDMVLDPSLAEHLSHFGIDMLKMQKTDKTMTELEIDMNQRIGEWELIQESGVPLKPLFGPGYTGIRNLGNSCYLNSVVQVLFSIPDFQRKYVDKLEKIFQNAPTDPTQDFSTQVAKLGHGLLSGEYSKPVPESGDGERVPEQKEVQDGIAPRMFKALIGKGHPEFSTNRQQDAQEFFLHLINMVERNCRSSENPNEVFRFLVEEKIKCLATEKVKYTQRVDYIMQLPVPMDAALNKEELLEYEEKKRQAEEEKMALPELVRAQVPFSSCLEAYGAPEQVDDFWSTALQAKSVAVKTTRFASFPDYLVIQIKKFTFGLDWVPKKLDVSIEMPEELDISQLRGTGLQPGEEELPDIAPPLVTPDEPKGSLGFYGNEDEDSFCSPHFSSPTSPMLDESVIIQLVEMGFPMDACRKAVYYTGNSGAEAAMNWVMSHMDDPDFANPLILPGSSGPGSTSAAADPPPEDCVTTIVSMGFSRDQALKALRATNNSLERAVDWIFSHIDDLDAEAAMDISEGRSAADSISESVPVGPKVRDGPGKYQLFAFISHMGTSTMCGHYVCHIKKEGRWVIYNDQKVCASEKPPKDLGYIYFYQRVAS

Target: T1, low-density lipoprotein receptor-related protein 11 (LRP11), endogenous (human (endogenous in Hep3B)) (UniProt Q86VZ4)
T1 sequence: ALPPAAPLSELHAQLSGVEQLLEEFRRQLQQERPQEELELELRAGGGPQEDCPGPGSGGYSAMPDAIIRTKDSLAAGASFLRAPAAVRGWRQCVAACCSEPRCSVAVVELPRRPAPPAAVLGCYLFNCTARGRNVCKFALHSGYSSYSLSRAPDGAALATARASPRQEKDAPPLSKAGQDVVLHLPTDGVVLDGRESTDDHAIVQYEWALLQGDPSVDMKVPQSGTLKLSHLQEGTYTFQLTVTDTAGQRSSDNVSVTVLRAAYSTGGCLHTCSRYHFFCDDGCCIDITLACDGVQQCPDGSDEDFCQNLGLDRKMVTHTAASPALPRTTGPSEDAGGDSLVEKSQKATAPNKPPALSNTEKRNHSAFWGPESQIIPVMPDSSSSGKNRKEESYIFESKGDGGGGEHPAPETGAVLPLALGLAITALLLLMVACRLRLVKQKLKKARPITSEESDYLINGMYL
Experiment: affinity purification with mass spectrometry; IP from total protein of Hep3B cells with anti-LRP11 antibody (sc-514698) and protein A/G agarose beads; silver staining and mass spectrometry

In the case of “Ubiquitin specific peptidase 5 (USP5), endogenous (from UniProt P45974 1-858) (enzyme)”, the binding was “binds”.
